Data from patent US10117912B2 (priority 2013, dated 2018).

Experiments:
MDCKII-wt monolayer = details: dog, MDCK, pH 7.4
MDCKII-wt monolayers = details: pH 7.4

SMILES: CN1C(=O)CN=C(c2ccccc2)c2cc(Cl)ccc21 [diazepam]
- flux across MDCKII-wt monolayer (MDCKII-wt monolayer): 0.00045±0.00007 μg/cm^2 s
- effect on TEER (monolayer integrity) (MDCKII-wt monolayers): unaffected
